Measured values as given in the supplement of paper PMC5949888.
± gives the standard deviation of the averaged measurements. Most values lie at the floor of the assay. Slopes are relative: functional sequences can read slightly below zero.

What follows are substances tested on Saccharomyces cerevisiae PS128 hsf1 delta, HSF1(1-493) fusion (assay: growth estimate (transactivation domain function in HSF1 fusion, heat-shock survival) (a.u. (slope of normalised read count over time)); higher = stronger growth at 37°C, i.e. more transactivation activity). Conditions: library: random library.

Substance	growth estimate
GRAARSGWITSSTLLRAFTA	< -0.25
YRGPASQDPASQSSR	< -0.25
PIRRSVVVILKLIAHQFDQG	< -0.25
PIARASSNEDAHPRQMTHRP	< -0.25
GVLFCSGSDLKK	< -0.25
ISIMRAPRVRPTP	< -0.25
RFFDQRVRGGRLINATTRGG	< -0.25
QPWVNISWQCMINIVGGALL	< -0.25
CPRGKELRGGEFATHGTRQR	< -0.25
NWLC	< -0.25
PPTPIQREPRGVECR	< -0.25
AHGQAL	< -0.25
ESPKDRRGKYYAAPADAWAA	< -0.25
RVRDPSFSKGEILG	< -0.25
YMQDRWEVRRMAGLPATNLI	< -0.25
LYVYVYREPLGNKCSTPGGC	< -0.25
HDYRIIRYTSKLEPRAL	< -0.25
SQARRTGGRRVRSANSFFQA	< -0.25
KVGSAG	< -0.25
RSNQARGGMVIPGVHR	< -0.25
IRGWEDRLSRVYVERPDAKA	< -0.25
HSSIKVDPTSPAGT	-0.145
WDGPPVLNTDHDFLSRSTVP	< -0.25
REWGWSRLTLRATKKGTLSG	< -0.25
GPLTYIVRVVRPSARPDTLL	< -0.25

Quoted at random: 4 records from the list
Substance	growth estimate
HSSIKVDPTSPAGT	-0.145
HDYRIIRYTSKLEPRAL	< -0.25
RVRDPSFSKGEILG	< -0.25
GVLFCSGSDLKK	< -0.25

Going on with the list:

Substance	growth estimate
ICNP	< -0.25
FMCMSLTPRGSQP	< -0.25
GEQTLPVFGMCSLAAKSGHR	-0.0343
RGSSVPDTVSAN	< -0.25
LARVLSVPSESCYIWVNRAK	< -0.25
LNGTVSDDNAIGVTISAH	< -0.25
GLPPL	< -0.25
DVSLR	< -0.25
CPVCSVTR	< -0.25
RSRFFEPS	< -0.25
VLLVKARGRCWSEKLGSL	< -0.25
YRRVGLTS	< -0.25
PSRRI	< -0.25
PHTRETDKM	-0.246
LPRSSRCPSGLYFA	< -0.25
VLINVADGI	< -0.25
VPAVASNIRGVMSKAGPIMN	< -0.25
RLNP	-0.247 ± 0.0037
LIHTRRRGDIKAYSVVPRAF	< -0.25
GGQLMRRSRKEDMHLALWAT	< -0.25
QSRHSAWVSRTPSNGKWLRG	-0.245
WGVTLEPRIDSEGQGMYMPG	-0.173
FEGGP	< -0.25
GVNIIM	< -0.25
LIPDQ	< -0.25

Substance	growth estimate
SCCLTTRGPGRVSPVAGSMY	< -0.25
SKGLLGPEGWLRLHGITDDV	< -0.25
HGSRVGFQPLGRKLERRLGS	< -0.25
EECQESAYITVPAGSHKA	< -0.25
RTTCHLPS	< -0.25
SLVVLRGLLLTLVQA	< -0.25
GRFMFDRI	< -0.25
CIYDGQF	-0.246
YGIA	< -0.25
KYSKWVYVRGGSWTQFPVSH	< -0.25
DREHD	< -0.25
IPQKHGVSGL	< -0.25
PLRNIAFCGSILMRSAWPSW	< -0.25
SDDYLGVTGCLSSKPSATHS	< -0.25
YVSSSRICAASEYKSYLGAL	< -0.25
LVWLKYYRLQQGILRVTEGR	-0.245
HVDAWLIPRCA	< -0.25
GYRRFAWLVYGLEFKSGAFF	< -0.25
LSNEESDLGGT	< -0.25
DLQTRQIS	< -0.25
IEETGCIRTRSDV	< -0.25
VGVM	< -0.25
SSGNLQA	< -0.25
STEPKVVRSNYDRAERIWPG	< -0.25
LMIAVGNQYRYVQHMCSYGH	< -0.25

Substance	growth estimate
ASVVGLEARVEKLG	< -0.25
RVSSTLVRSVIKSS	< -0.25
NTEFSAS	< -0.25
ATWLTEGRLLWHIRSTQGSM	-0.229
YRTPKPRDYRN	< -0.25
CTLTLATRCVLKDTQVPPVW	< -0.25
WVYLGQRVWVQRKELVSPKP	< -0.25
EPEGRRNTLMLR	< -0.25
SVVVSASEDLY	< -0.25
TSRDSDWCILGFSIFVHEML	< -0.25
GTGSAGRKGRNGV	< -0.25
RGGGGSRYQ	< -0.25
QVHDPLDAT	< -0.25
ATYLGLGVVPWARGDRFHRS	< -0.25
FILHG	-0.25
VVGSIEAPSHRWLTPNPRRR	< -0.25
RICVRQGLSSLR	< -0.25
FMQFAIILLYLTLLN	< -0.25
GLGPRAGLMPHNISTDRLRQ	< -0.25
NTF	< -0.25
RPERGKI	< -0.25
EPLLEMQTQAQGQYSTCPSP	< -0.25
SGKTREVSDSAISEWYREMA	< -0.25
RSPPAASRSAGWRRQGLGSV	< -0.25
KTLNCRQRQPQSGNHETDL	< -0.25

Substance	growth estimate
LVPT	< -0.25
RVSIGCFRCFPSQVPLSRPL	< -0.25
SGRPAAFGWSLLALLLDWSQ	< -0.25
TQCASRCQRAHVMRIGPSAT	< -0.25
GKWPVYVEIDGVSVAAGAGR	< -0.25
PPMCWKKKHAYNMSLRPFSG	-0.219
TGSPTTSRSSVIGHTVQGMP	< -0.25
EAKLAAGQRCGDELARQSRA	< -0.25
LVTLVTVPLEGMARTSGVYE	< -0.25
PKACLLCFHDCLVV	< -0.25
ECLVAY	< -0.25
QLFLQALCSMVGGGDR	< -0.25
LSFHGPRTTVI	< -0.25
HQTSMPHPHCLGCVGVLVSH	< -0.25
ETGVDLRPQCVRLAARYCR	< -0.25
RVRSHHGRLARDGRFALGSL	< -0.25
IIEPPS	-0.246
EFCQAKLRQPGYFTVAVCLF	< -0.25
RQVGLKAQR	< -0.25
TCAPLFWQASQSQLRGEALI	< -0.25
CTLSYCQLVS	< -0.25
HRALSKMRSEGYKK	< -0.25
RWSTGARVPCPGQIYHFLAS	< -0.25
SDRDDGGLSQLKT	< -0.25
LSSP	< -0.25

Reformatted as labelled records: part of the list above.
GKWPVYVEIDGVSVAAGAGR
  growth estimate: < -0.25
PPMCWKKKHAYNMSLRPFSG
  growth estimate: -0.219
TGSPTTSRSSVIGHTVQGMP
  growth estimate: < -0.25
EAKLAAGQRCGDELARQSRA
  growth estimate: < -0.25

(further entries)

Substance	growth estimate
PPLYLVSARIRSSGASLSSV	< -0.25
IQHIYHLHTLRTRLEMCLIG	< -0.25
GWLSVGIFGGRPLRSYPLKA	< -0.25
CSGLSKSHSTEEGFHSQAPP	< -0.25
MYDFNRKWGWGPWKKAFVSR	< -0.25
QSTKL	< -0.25
KRNRGATPWG	< -0.25
STYYVQKLKGGAGSSGGLVR	< -0.25
GGVLYGTGWTGPARE	< -0.25
PGWILLCKDIRNNMVCGCNT	< -0.25
TVVEFVG	< -0.25
IHG	< -0.25
DGEYTQCKTTGGKVRLQS	< -0.25
MGHGGGPHIWLRTAVSNIAL	< -0.25
FPTLVANFVHSFAAIIGRIR	< -0.25
GSSQVADAYL	< -0.25
VTGVRVA	< -0.25
IPQVVVVYIDHRKIRR	< -0.25
IIGQVVSGVRTGYRVGS	< -0.25
SLIL	-0.246
SFYMLGFAYR	< -0.25
SRACKFVDQDQYSTVPPFRE	< -0.25
GLLDHEFANTVGSKWSRLRK	-0.0918
LLKFGERL	< -0.25
SRVVDYYLGMQWPCLGCN	< -0.25

Substance	growth estimate
VTKQAPVVHPRSFFLSPTDV	< -0.25
WEL	< -0.25
EPGYDLIG	< -0.25
SRTVRLIY	< -0.25
LLYNLFIGDPVGRGTCCQ	0.216
GEEIHTDDGECVLA	< -0.25
YGYGV	< -0.25
IVSHSYVSESQLAVSTRTVL	< -0.25
SLPPSNTVARCGTPHWYSVM	< -0.25
CVKQGS	< -0.25
RDFGDCLHLRPDVLALAPKG	< -0.25
RRPSWPQDRGTFSWSANVLA	< -0.25
GRDALWRDFWRGLPAEWDGR	< -0.25
LVARLDLLILRCSSFVYGVS	< -0.25
IVWADVGSVLM	< -0.25
QPTGPYLLRRGAW	< -0.25
IIMPRFHKWAVNVTCLIPGI	< -0.25
KPQRKILS	< -0.25
TGVSSVRRCKKKKVGTAYTT	< -0.25
GSTQKIWDLENA	< -0.25
RPFRFYLLLVERMCLCLHGL	< -0.25
TRIVELMATSSTIMRARHVT	< -0.25
YSFRRTELALYCDDP	< -0.25
TGRYGGSNVV	< -0.25
DRPGTHLHEGWCDRPQNVWG	< -0.25

Substance	growth estimate
ISNGRYVGDHRVGPIAG	< -0.25
PESHILGGPQDYWTPIASLS	< -0.25
PAWLIQIHLRRLPRENALAR	< -0.25
RLRREIGGEGSVGLKSPATR	< -0.25
DHLCPADVSTDRNGVCSANV	< -0.25
PSHPGRTQSDHVY	< -0.25
CIFVGRWSITTNSWDTYDQA	< -0.25
GLLSVTPVSDCVEPWHFAVD	< -0.25
GNVLGSASLIQTSEDLQTFE	< -0.25
GDSSRPYG	< -0.25
VAS	< -0.25
VSYVACT	< -0.25
VMFEIRGTGRLDVCG	< -0.25
GESQRPLTATSYSMGDARLP	< -0.25
GREWTSRLVFREVVRRFMLN	< -0.25
SHSSR	< -0.25
PGRA	< -0.25
TSQFSFLPSSRG	< -0.25
VLPSMQAPHPQATRNLPMKV	< -0.25
EFWIVRYAVVDYLGSECFAG	< -0.25
SCGVR	< -0.25
SRQRYWHIGRWYSKMASLVQ	< -0.25
GGNTPGGRVFDCC	< -0.25
GHIKSHCTRWVVSGRHAHIG	< -0.25
